Patent publication US20200138870A1, “RECREATION OF PANCREATIC NICHE ALLOWS FOR NOVEL METHODS FOR HUMAN, MATURE BETA DERIVATION FROM PLURIPOTENT STEM CELLS” (Baylor College of Medicine, priority 2016, published 2020)
Entries after “also recorded” stand apart in the source; their conditions may differ. At least one compound was matched to its structure with a doubt left.

System: hESC-derived EPs
Assay: Growth factor treatment of hESC-derived EPs for 3 days, immunofluorescence quantification of marker-positive cells
Format: cell-based, human
Conditions: EPs treated 3 days with SP600125 at two concentrations, vs vehicle (DMSO)
Procedure: hESC, ISL1-EGFP Hues8 and H1, were maintained under a feeder-free system on Geltrex (Invitrogen) in TeSR-E8 media (Stemcell Technologies). Cells were passaged at 70-80% confluence using TrypLE (Invitrogen). After dissociation, cells were seeded in TeSR-E8 media+10 μM Y-27632 for 24h. Differentiation was started when cells were 90% confluent. The following media and growth factors/small molecules (see also Table 3) were used: Day1: MCDB-131 media with 0.1% BSA+10 mM glucose+ActivinA and CHIR99021. Day2-3: MCDB-131 media+0.1% BSA+10 mM glucose+ActivinA. Day4-5: MCDB-131+0.1% BSA, 10 mM glucose, VitC+KGF. Day6-9: MCDB-131 2% BSA+5.5 mM glucose+Vit.C+ITS (Invitrogen)+ActivinA+KGF+RA+SANT-1+Noggin. Day10-12: MCDB-131+2% BSA+5.5 mM glucose+VitC+ITS+SANT-1+Noggin+PdBU. Day13-15: MCDB-131+2% BSA+5.5 mM glucose+VitC+ITS+Noggin+AlK5i. […]
Cells were incubated with 5% donkey serum (Jackson ImmunoResearch Laboratories) in PBST (PBS+0.1% Triton-X) for 30 min to avoid nonspecific binding of the antibody and to permeabilize the cells. […] Images were initially processed by LAS X software and then further analyzed and quantified using ImageJ software (NIH, W Rasband, http://rsb.info.nih.gov/ij) using cell counter plug-in. Typically, at least 5 randomly selected images were counted per condition.

Question: With `Oc1c2ccccc2c2c3c(cccc13)N=N2` [SP600125, reference compound] as the compound, how does the “INS+ cell number after JNK inhibition (in words)” value read?
Answer: reduced INS+ cell number in a dose dependent manner; also recorded: lowers the INS+ cell induction
